{"source": "PubChem BioAssay (NCATS)", "note": "The shares of active, inactive and inconclusive entries below differ from those in the screen. Potencies beside an inconclusive call are fits to weak or partial responses and may not hold up. Active and inactive are the calls of the source. Calls come from the whole dose curve; as a rule, active = well fitted cell-killing curve with a large enough effect; inconclusive = small, poorly fitted or top-dose-only effect, or effect the other way, or another doubt; inactive = no such curve, though single readings can be large or run the other way. Potency is the fitted concentration of half-maximal effect.", "data": [{"assay": "Identifying Small Molecule Inhibitors of Pancreatic Cancer Stem Cells (Panc1, Adherent) (AID 1259362);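 for viability, % of control: compound exposure lasted 48 h before the viability read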", "details": "Potency: viability unless noted; viability, % of control: at 46.1 µM (top of the series) unless noted", "method_in_brief": "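Spheroids grown 14 days in stem cell media on hydrogel-coated nonadherent plates; 2D lines seeded directly. Compounds added after 4 h attachment, 48 h at 37C, 5% CO2; CellTiter-Glo luminescence normalized to DMSO (no inhibition) and no-cell wells (full inhibition).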", "values": [{"compound": "CC(=O)OCCN1C(=O)c2c(C)nc3ccc(S(=O)(=O)N4CCOCC4)cc3c2C1=O", "Potency": "active: 10.5 µM"}, {"compound": "COc1cc2c(cc1OC)CC(=O)N(CCCN(C)C[C@H]1Cc3cc(OC)c(OC)cc31)CC2", "Potency": "inactive"}, {"compound": "Cc1cc(Nc2cc(N3CCN(C)CC3)nc(C=Cc3ccccc3)n2)n[nH]1", "Potency": "inconclusive: 0.372 µM [cytotoxic, full curve, poor fit]"}, {"compound": "CN(C)CCCNC(=O)c1ccc(-c2cc(O)c3ncccc3c2)cc1", "Potency": "inconclusive: 26.4 µM [cytotoxic, single point]"}, {"compound": "Clc1ccc2ncc(-c3cccc(NC4CNC4)n3)n2c1", "Potency": "inactive"}, {"compound": "Nc1nccc(-c2ccc3noc(-c4ccc(Cl)cc4)c3c2)n1", "viability, % of control": "inconclusive: 137%"}, {"compound": "CC(=O)SC[C@@H](C)C(=O)N1CCC[C@H]1C(=O)N[C@@H](Cc1ccccc1)C(=O)O", "Potency": "inactive"}, {"compound": "CN1CCN(c2ccc3nc(-c4c(N)c5c(F)cccc5[nH]c4=O)[nH]c3c2)CC1", "Potency": "active: 33.2 µM"}, {"compound": "O=C(NOC[C@H](O)CO)c1ccc(F)c(F)c1Nc1ccc(I)cc1F", "viability, % of control": "inconclusive: 95.1%"}, {"compound": "Cc1ccc(NC(=O)c2cccc(C(C)(C)C#N)c2)cc1Nc1ccc2ncn(C)c(=O)c2c1", "Potency": "inconclusive: 0.001 µM [cytotoxic]"}, {"compound": "COc1ccccc1-c1cccc(-c2c(O)c3cc(C#N)c(Cl)cc3[nH]c2=O)c1", "Potency": "active: 1.18 µM"}, {"compound": "OCCn1cc(-c2ccc3c(c2)CCC3=NO)c(-c2ccncc2)n1", "viability, % of control": "inconclusive: 90.6%"}, {"compound": "Cc1ccc(Nc2nccc(N(C)c3ccc4c(C)n(C)nc4c3)n2)cc1S(N)(=O)=O", "Potency": "inconclusive: 0.526 µM [cytotoxic, full curve, poor fit]"}, {"compound": "O=C(Nc1cccc(Cl)c1)Nc1ncc(CCNc2ncnc3ccsc23)s1", "Potency": "active: 18.7 µM"}, {"compound": "C[C@]1(CO)CN(c2cc(C(=O)Nc3ccc4c(c3)-c3c(c(C(N)=O)nn3-c3ccc(F)cc3)CC4)c(Cl)cn2)C[C@@]1(C)CO", "Potency": "inconclusive: 8.33 µM [cytotoxic, full curve, poor fit]"}, {"compound": "CNC(=O)c1ccc(N2C(=S)N(c3ccc(C#N)c(C(F)(F)F)c3)C(=O)C2(C)C)cc1F", "Potency": "inactive"}, {"compound": "CC(C)(C)c1cc(C(C)(C)C)c(NC(=O)c2c[nH]c3ccccc3c2=O)cc1O", "Potency": "active: 23.5 µM"}, {"compound": "O=C(O)CCc1ccc(NCc2cccc(Oc3ccccc3)c2)cc1", "Potency": "inactive"}, {"compound": "Cc1c(-c2ccc(O)cc2)n(Cc2ccc(OCCN3CCCCCC3)cc2)c2ccc(O)cc12", "viability, % of control": "inconclusive: 107%"}, {"compound": "CC(C)(Sc1ccc(CCN(CCCCC2CCCCC2)C(=O)NC2CCCCC2)cc1)C(=O)O", "viability, % of control": "inconclusive: 113%"}, {"compound": "O=c1[nH]c(-c2ccc(C(F)(F)F)cc2)nc2c1CSCC2", "Potency": "inactive"}, {"compound": "Cn1cc(-c2ccc3nnc(Sc4ccc5ncccc5c4)n3n2)cn1", "Potency": "inactive"}, {"compound": "COc1ccc2nc(S(=O)Cc3ncc(C)c(OC)c3C)[nH]c2c1", "note": "(centres undefined)", "viability, % of control": "inconclusive: 86.5%"}, {"compound": "CC(c1cc2ccccc2s1)N(O)C(N)=O", "note": "(centres undefined)", "viability, % of control": "inconclusive: 90.9% [at 92.2 µM]"}, {"compound": "Cc1[nH]nc2ccc(-c3cncc(OC[C@@H](N)Cc4ccccc4)c3)cc12", "Potency": "active: 4.69 µM"}, {"compound": "O=c1ncn2nc(Sc3ccc(F)cc3F)ccc2c1-c1c(Cl)cccc1Cl", "Potency": "inconclusive: 0.935 µM [cytotoxic, full curve, poor fit]"}, {"compound": "O=C(C=Cc1c(C(=O)O)[nH]c2cc(Cl)cc(Cl)c12)Nc1ccccc1", "Potency": "inactive"}, {"compound": "CCOc1cc2ncc(C#N)c(Nc3ccc(F)c(Cl)c3)c2cc1NC(=O)C=CCN(C)C", "Potency": "active: 18.7 µM"}, {"compound": "CC(C)(C)c1cc(NC(=O)Nc2ccc(-c3cn4c(n3)sc3cc(OCCN5CCOCC5)ccc34)cc2)no1", "Potency": "inconclusive: 26.4 µM [cytotoxic, single point]"}, {"compound": "O=C(NCCS(=O)(=O)c1ccc(C(F)(F)F)cn1)c1ccc(Cl)cc1", "viability, % of control": "inconclusive: 98.9%"}, {"compound": "CN(C)C(=O)c1ccc(S(=O)(=O)c2ccc(NC(=O)[C@@](C)(O)C(F)(F)F)c(Cl)c2)cc1", "Potency": "inconclusive: 0.001 µM"}, {"compound": "Nc1cccc2c1CN(C1CCC(=O)NC1=O)C2=O", "note": "(centres undefined)", "viability, % of control": "inconclusive: 108% [at 92.2 µM]"}, {"compound": "COc1nc(C)cnc1NS(=O)(=O)c1cccnc1-c1ccc(-c2nnco2)cc1", "Potency": "inactive"}, {"compound": "C=CC(=O)Nc1cc2c(Nc3ccc(F)c(Cl)c3)ncnc2cc1OCCCN1CCOCC1", "Potency": "inconclusive: 20.9 µM [cytotoxic, partial curve, poor fit]"}]}]}
